This note sets out measurements from publication PMC9306950 (Clinical Pharmacology in Drug Development, 2022).

The term AUC(0-inf) denotes the area under the concentration-time curve extrapolated to infinity. High values mean high exposure, low ones low exposure. As a reminder, the Cmax is the peak of the concentration-time curve. As usually defined, the Tmax is the time at which the peak concentration occurs.

The structures appear in SMILES notation.

A short description of one data set: clinical. Particulars: human, plasma, oral, 40 mg.
The conditions of data set [1]: concomitant roxadustat vs statin alone.

As to `CC(C)c1c(C(=O)Nc2ccccc2)c(-c2ccccc2)c(-c2ccc(F)cc2)n1CC[C@@H](O)C[C@@H](O)CC(=O)O` [Atorvastatin], in the data set “clinical”, the AUC(0-inf) was determined as 94.1 ng·h/mL, the concentration peaked (Cmax) at 15.3 ng/mL and the Tmax amounted to 54 min. Moreover, the “CL/F lower in the presence of roxadustat” value in data set [1] was determined as 50%.
